Reference: patent publication US20190374526A1, “Substituted Heterocyclic Compounds as Inhibitors of PRDM9” (Merck Sharp & Dohme Corp., priority 2018, published 2019)
pIC50: −log10 of the molar value. The structures given here were assigned with low confidence; some may be wrong.

Amino acid sequences for entries named in this document (tags omitted). Residues count along the entry.
UniProt Q9NQV7, 195-385 limits assumed: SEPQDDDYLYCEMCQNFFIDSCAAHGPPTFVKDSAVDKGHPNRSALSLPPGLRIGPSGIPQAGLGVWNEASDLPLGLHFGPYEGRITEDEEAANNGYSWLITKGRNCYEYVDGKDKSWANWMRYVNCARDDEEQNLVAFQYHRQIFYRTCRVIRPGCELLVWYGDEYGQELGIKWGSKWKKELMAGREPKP

target: hPRDM9 (amino acids 195-385) (Homo sapiens, UniProt Q9NQV7); experiment: PRDM9 biochemical assay (radiometric, 3[H] methyl transfer from SAM to biotinylated histone H3 peptide); conditions: read-out: PRDM9 IC50; 1 nM hPRDM9, 1 μM biotinylated H3(1-25)K4 peptide, 5 μM 3[H]-SAM, 55 μM un-labeled SAM, 25° C., 30 minutes
Description: The PRDM9 biochemical assay was carried out using a radiometric format involving the transfer of ^3[H] methyl group from S-adenosyl methionine (SAM) to a biotinylated histone H3 peptide (H3(1-25)K4). 10 mM compounds in DMSO were diluted 20 fold in assay buffer (10 mM Tris-HCl, pH 8.5, 10 mM DTT, and 0.01% Triton X-100) before adding […] to a well in a 384 well polypropylene microplate plate and adding 8 μl of reaction mix (1.25 nM hPRDM9 (amino acids 195-385), 1.25 μM biotinylated H3 peptide in assay buffer). The ^3[H]-SAM and cold SAM stock solutions were diluted to 50 μM and 550 μM respectively in assay buffer before aliquoting 1 μl of 50 μM ^3[H]-SAM, 550 μM SAM into each well to initiate the reaction. The assay was performed at 25° C. at the final concentrations of 1 nM hPRDM9, 1 μM peptide, 5 μM ^3[H]-SAM, and 55 μM un-labeled SAM in assay buffer. The reaction was quenched after 30 minutes by adding 25 μl 7.5 M Guanidine-HCl. Quenched reactions were transferred to streptavidin coated Flashplates, diluted two fold in assay buffer, incubated for 1 hour, and read on a Perkin Elmer Topcount instrument. Compound activity was expressed relative to activity of 0.5% (v/v) DMSO treated samples and fit to a four parameter logistic equation to determine IC50 values.

Compound | pIC50
Cc1cc(N2CCC(CCNc3nc(-c4cc(Cl)cc(Cl)c4)no3)CC2)ccn1 [Compound 22] | 4.65
Cc1cc(NC2CC23CCN(c2nc(-c4cc(Cl)cc(Cl)c4)no2)CC3)ccn1 (stereo not drawn) | 4.79
Cc1cc(N2CCOC3(CCN(c4nc(-c5cc(Cl)cc(Cl)c5)no4)CC3)C2)ccn1 | 5.47
